Results are given in words; binding and its absence hold for the method and conditions named. In cells and extracts the contact can be indirect. A yes stands for co-enrichment or nearness to the bait. Other partners may have been found. Sequences can lack the tags named with a protein.
Target: T1, Myc-DUSP22 (UniProt Q9NRW4)
T1 sequence: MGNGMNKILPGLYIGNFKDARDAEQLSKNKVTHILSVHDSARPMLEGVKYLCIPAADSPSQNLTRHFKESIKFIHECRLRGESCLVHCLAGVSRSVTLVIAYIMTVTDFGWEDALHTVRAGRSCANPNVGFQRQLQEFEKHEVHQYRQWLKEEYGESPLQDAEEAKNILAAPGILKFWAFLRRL
Assay: affinity purification with mass spectrometry; Myc-DUSP22 immunocomplexes precipitated with anti-Myc agarose beads from lysates of HEK293T cells transfected with vector or Myc-DUSP22; gel bands, trypsin, LC-MS/MS

By UniProt entry, the sequences of proteins in these tests, tags left out.
UniProt Q8IWV8: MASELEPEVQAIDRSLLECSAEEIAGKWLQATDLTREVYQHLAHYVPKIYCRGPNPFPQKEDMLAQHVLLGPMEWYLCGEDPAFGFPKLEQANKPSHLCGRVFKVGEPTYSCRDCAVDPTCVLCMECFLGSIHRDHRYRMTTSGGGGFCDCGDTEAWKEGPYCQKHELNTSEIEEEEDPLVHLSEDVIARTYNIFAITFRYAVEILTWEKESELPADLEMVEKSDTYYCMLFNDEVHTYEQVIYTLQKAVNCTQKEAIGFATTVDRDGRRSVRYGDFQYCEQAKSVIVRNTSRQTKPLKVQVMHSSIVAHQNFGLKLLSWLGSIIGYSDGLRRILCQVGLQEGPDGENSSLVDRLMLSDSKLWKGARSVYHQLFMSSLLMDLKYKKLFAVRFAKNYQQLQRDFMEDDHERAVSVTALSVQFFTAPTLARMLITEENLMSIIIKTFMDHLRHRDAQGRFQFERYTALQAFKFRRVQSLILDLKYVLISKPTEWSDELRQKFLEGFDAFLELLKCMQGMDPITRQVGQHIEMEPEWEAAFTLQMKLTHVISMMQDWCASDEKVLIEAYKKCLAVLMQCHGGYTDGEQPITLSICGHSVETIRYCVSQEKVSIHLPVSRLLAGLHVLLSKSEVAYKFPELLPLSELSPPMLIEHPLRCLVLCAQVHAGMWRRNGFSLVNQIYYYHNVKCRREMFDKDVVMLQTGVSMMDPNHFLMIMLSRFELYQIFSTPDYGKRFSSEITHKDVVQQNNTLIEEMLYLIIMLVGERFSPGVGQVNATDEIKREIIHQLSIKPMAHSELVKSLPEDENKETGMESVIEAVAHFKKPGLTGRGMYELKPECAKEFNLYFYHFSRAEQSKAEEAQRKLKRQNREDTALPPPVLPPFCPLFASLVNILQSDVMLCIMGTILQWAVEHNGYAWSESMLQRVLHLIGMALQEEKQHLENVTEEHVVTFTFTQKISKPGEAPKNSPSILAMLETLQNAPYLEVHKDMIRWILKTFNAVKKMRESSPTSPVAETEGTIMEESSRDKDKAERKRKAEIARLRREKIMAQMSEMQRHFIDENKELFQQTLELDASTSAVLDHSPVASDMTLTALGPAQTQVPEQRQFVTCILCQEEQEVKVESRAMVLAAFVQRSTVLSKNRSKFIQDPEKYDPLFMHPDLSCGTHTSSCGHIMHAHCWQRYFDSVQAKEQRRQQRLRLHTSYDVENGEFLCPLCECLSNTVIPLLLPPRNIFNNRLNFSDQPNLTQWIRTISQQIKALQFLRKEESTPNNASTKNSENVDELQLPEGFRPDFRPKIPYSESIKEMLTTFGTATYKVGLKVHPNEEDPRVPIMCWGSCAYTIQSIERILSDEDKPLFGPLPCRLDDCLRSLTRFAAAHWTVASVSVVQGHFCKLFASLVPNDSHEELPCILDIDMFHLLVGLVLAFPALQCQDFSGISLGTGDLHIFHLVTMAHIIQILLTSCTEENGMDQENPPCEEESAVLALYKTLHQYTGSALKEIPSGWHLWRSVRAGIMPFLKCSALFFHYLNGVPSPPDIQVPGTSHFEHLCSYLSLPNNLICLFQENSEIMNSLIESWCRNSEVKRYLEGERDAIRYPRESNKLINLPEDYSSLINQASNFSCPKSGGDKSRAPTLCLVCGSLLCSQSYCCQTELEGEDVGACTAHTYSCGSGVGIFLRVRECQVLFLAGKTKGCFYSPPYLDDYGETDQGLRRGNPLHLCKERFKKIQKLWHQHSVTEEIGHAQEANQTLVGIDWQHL

binding: binds
Substance: endogenous UBR2 protein (HEK293T) (from UniProt Q8IWV8 1-1755)

— PMC10789758
